These are yes or no findings as the source states them, for the method shown. Binding seen in cells or lysates may run through a third protein. A yes stands for co-enrichment or nearness to the bait. Other partners may have been found.
How the values were obtained:
Experiment in all cases: affinity purification with mass spectrometry
[1] = target: hSim1.3xFlag2xStrep(1-348) (human) (UniProt P81133)
[2] = target: hSIM1.R171H-2xHA-3xFlag (human) (UniProt P81133)
[3] = target: hSIM1-2xHA-3xFlag (human) (UniProt P81133)
[4] = target: hSim1(R171H).3xFlag2xStrep(1-348) (human) (UniProt P81133)

Sequences of proteins named here, by UniProt entry; tags and fusion partners are left off. A change or cut given only in a name is not applied to a line headed by its entry. Residues count along the entry.
UniProt P81133, whole entry, stated change not applied: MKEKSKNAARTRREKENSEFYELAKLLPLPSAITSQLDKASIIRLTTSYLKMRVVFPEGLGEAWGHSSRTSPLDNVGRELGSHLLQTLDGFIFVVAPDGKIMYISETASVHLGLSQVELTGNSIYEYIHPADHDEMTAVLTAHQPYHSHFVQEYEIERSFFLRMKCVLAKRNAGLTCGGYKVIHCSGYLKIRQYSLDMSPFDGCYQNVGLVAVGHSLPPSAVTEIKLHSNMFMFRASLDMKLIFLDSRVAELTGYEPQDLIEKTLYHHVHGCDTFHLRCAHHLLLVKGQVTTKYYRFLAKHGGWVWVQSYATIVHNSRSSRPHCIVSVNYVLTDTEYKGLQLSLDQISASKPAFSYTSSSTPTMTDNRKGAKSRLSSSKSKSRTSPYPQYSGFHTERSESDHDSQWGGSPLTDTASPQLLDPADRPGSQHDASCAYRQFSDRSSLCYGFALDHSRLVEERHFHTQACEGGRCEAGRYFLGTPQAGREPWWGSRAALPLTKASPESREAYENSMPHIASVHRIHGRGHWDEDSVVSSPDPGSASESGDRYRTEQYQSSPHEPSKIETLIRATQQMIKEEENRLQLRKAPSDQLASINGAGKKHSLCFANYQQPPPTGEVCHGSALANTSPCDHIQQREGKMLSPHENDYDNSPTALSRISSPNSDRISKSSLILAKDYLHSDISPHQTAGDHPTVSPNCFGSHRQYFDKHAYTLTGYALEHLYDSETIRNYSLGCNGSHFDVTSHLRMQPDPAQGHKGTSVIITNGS
UniProt P81133, 1-348, stated change not applied: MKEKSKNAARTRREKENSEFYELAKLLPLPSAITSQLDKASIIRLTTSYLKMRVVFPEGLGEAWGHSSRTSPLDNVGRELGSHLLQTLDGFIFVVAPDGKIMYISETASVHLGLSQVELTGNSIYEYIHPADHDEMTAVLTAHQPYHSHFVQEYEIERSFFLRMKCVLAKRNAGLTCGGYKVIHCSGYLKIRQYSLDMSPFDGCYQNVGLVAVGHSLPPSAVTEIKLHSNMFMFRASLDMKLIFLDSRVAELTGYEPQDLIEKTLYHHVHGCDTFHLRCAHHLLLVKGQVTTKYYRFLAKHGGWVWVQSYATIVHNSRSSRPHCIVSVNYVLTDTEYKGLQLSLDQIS

Measured: binding

HSP90A (endogenous, HEK293T) (from UniProt P07900 1-732)
binds: all assays above

— doi:10.1101/2022.02.01.475276
